Results: the supplement of paper PMC4604168 (melanoma cell lines)
Some of the results follow. Repeats are few or missing, and single values can be far off.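 Cells were imaged in 1,536-well plates, and nuclei stained with an antibody against cleaved PARP were counted against all DNA-stained nuclei to give the apoptosis fraction. Screening doses were chosen to leave most cells alive, and resting and induced cleaved-PARP levels differ strongly between cell lines.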

Tested on: SkMel30
Test: cleaved PARP positive nuclei fraction relative to DMSO control; melanoma cells; higher = more apoptosis
Details: library dose: low library concentration; 72 h

Going from `CC(=O)O[C@@]12CO[C@@H]1C[C@H](O)[C@@]1(C)C(=O)[C@H](O)C3=C(C)[C@@H](OC(=O)[C@H](O)[C@@H](NC(=O)OC(C)(C)C)c4ccccc4)C[C@@](O)([C@@H](OC(=O)c4ccccc4)[C@H]21)C3(C)C` [Docetaxel] + C[C@]1(c2nc3c(C(N)=O)cccc3[nH]2)CCCN1 [Veliparib] (first compound 0.0001 µM, partner dose 1.4 µM) to `C[C@]1(O)C[C@@H](c2nc(-c3ccc4ccc(-c5ccccc5)nc4c3)c3c(N)nccn32)C1` + CCCS(=O)(=O)Nc1ccc(F)c(C(=O)c2c[nH]c3ncc(Cl)cc23)c1F [PLX4720] (first compound 0.4 µM, partner dose 0.08 µM), the “cleaved PARP positive nuclei fraction” value falls from 428% to 138%.

First: CCN(CC)CCNC(=O)c1c(C)[nH]c(/C=C2\C(=O)Nc3ccc(F)cc32)c1C [sunitinib] + OCc1c[nH]c2ccccc12 [Indole-3-carbinol] (first compound 0.4 µM, partner dose 0.8 µM)
Second: Cn1cnc2c(F)c(Nc3ccc(Br)cc3Cl)c(C(=O)NOCCO)cc21 [selumetinib] + C#Cc1cccc(Nc2ncnc3cc(OCCOC)c(OCCOC)cc23)c1 [erlotinib] (first compound 0.015 µM, partner dose 0.8 µM)
The “cleaved PARP positive nuclei fraction” value of the first is lower: 47.8% for the first, 143% for the second.

With `Cn1sc(=O)n(Cc2ccccc2)c1=O` + OCc1c[nH]c2ccccc12 [Indole-3-carbinol] (first compound 0.4 µM, partner dose 0.8 µM) the “cleaved PARP positive nuclei fraction” value was 70.4%.
